These are yes or no findings as the source states them, for the method shown. Binding seen in cells or lysates may run through a third protein. Binding can be weak; no strength is given.
Target: B-Raf (rat (endogenous in A7r5))
Assay: co-IP; endogenous proteins of A7r5 lysates in IP lysis buffer (50 mmol/L NaCl, 10% glycerol, 1% Nonidet-P40, 10 mmol/L sodium phosphate, pH 8.0); anti-IQGAP1, anti-KSR1, anti-B-Raf or anti-C-Raf cross-linked to Protein G dynabeads, or anti-ERK1/2 cross-linked to protein A agarose, 4°C over night; western blot and densitometry; for the ERK1/2, IQGAP1 and KSR1 IPs cells were unstimulated or stimulated 5 min with DPBA or FCS

B1: caveolin-1 (protein, UniProt P41350 1-178)
chain: MSGGKYVDSEGHLYTVPIREQGNIYKPNNKAMADEVNEKQVYDAHTKEIDLVNRDPKHLNDDVVKIDFEDVIAEPEGTHSFDGIWKASFTTFTVTKYWFYRLLSTIFGIPMALIWGIYFAILSFLHIWAVVPCIKSFLIEIQCISRVYSIYVHTFCDPLFEAIGKIFSNIRISTQEEI
  binding: binds weakly
